Experiments:
[1] = Adhesion of enamel coating on XENOY polycarbonate panels, ASTM D-3359 (Example 77); settings: 40 days at 60° C. in jar with distilled water
[2] = Appearance (haziness or incompatibility) of coated glass plates after oven ageing (Example 76); settings: 140° F. (60° C.) oven for 49 days; 2% by weight on resin solids

| Compound | Percent Coating Removed [1] [%] | Appearance [2] |
| --- | --- | --- |
| CCCCN(c1nc(NCCO)nc(N(CCCC)C2CC(C)(C)N(OC3CCCCC3)C(C)(C)C2)n1)C1CC(C)(C)N(OC2CCCCC2)C(C)(C)C1 [Example 1, 2-[(2-Hydroxyethyl)amino]-4,6-bis[N-(1-cyclohexyloxy-2,2,6,6-tetramethylpiperidin-4-yl)-butylamino]-1,3,5-triazine] | 0 | clear |
| CCCCCCCCON1C(C)(C)CC(N(CCCC)c2nc(NCCO)nc(N(CCCC)C3CC(C)(C)N(OCCCCCCCC)C(C)(C)C3)n2)CC1(C)C [Example 2, 2-[(2-Hydroxyethyl)amino]-4,6-bis[N-(1-octyloxy-2,2,6,6-tetramethylpiperidin-4-yl)butylamino]-1,3,5-triazine] | 0 | clear |
| CCCCN(c1nc(NCCCCCC(=O)O)nc(N(CCCC)C2CC(C)(C)N(OC3CCCCC3)C(C)(C)C2)n1)C1CC(C)(C)N(OC2CCCCC2)C(C)(C)C1 [Example 15, N-{4,6-Bis[(1-cyclohexyloxy-2,2,6,6-tetramethylpiperidin-4-yl)butylamino]-1,3,5-triazin-2-yl}-6-aminohexanoic acid] | – | clear |
| CCCCCCCCON1C(C)(C)CC(N(CCCC)c2nc(NCCCCCC(=O)O)nc(N(CCCC)C3CC(C)(C)N(OCCCCCCCC)C(C)(C)C3)n2)CC1(C)C [Example 16, N-{4,6-Bis[(1-octyloxy-2,2,6,6-tetramethylpiperidin-4-yl)butylamino]-1,3,5-triazin-2-yl}-6-aminohexanoic acid] | – | clear |
| CCCCCCCCON1C(C)(C)CC(OC(=O)CCCCCCCCC(=O)OC2CC(C)(C)N(OCCCCCCCC)C(C)(C)C2)CC1(C)C [HA 1, bis(1-octyloxy-2,2,6,6-tetramethylpiperidin-4-yl) sebacate, reference compound] | – | cloudy |
| CN1C(C)(C)CC(OC(=O)CCCCCCCCC(=O)OC2CC(C)(C)N(C)C(C)(C)C2)CC1(C)C [HA 2, bis(1,2,2,6,6-pentamethylpiperidin-4-yl) sebacate, reference compound] | 85 | – |
